Laboratory results taken from PubChem BioAssay AID743266 (National Center for Advancing Translational Sciences (NCATS), 2014).
Out of some 410,000 compounds screened, about 310 (0.076%) were called active. Inconclusive means that the source gave no clear call. Such entries were picked first, then a sample of the others. Calls follow the shape of the dose curve; as a rule, active = well fitted activation curve with a large enough effect; inconclusive = small, poorly fitted or top-dose-only effect, or another doubt; inactive = no such curve, though single readings can be large or run the other way. A potency beside an inconclusive call is a rough fit, not a confirmed value.

The chains behind the UniProt entries cited, without tags or fusion partners. Where a name states a change or a piece, a line headed by the entry shows the natural chain unless it says otherwise.
UniProt Q03431: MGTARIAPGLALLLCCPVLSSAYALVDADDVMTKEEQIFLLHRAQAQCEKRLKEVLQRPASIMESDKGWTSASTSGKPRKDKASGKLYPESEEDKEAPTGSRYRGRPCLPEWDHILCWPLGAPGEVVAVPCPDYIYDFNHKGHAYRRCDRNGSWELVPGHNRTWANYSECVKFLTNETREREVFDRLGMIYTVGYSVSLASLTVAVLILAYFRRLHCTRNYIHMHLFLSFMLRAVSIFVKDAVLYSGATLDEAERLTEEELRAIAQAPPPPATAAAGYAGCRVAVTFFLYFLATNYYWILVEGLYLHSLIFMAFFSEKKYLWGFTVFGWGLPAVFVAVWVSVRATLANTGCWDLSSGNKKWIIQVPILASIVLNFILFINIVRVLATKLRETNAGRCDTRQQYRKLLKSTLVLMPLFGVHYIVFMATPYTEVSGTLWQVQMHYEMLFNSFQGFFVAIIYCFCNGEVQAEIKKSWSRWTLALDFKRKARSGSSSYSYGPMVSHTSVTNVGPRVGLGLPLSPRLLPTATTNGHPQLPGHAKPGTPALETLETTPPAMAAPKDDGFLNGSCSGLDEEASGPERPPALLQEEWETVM

What follows are compounds tested against Parathyroid hormone/parathyroid hormone-related peptide receptor (Homo sapiens) (UniProt Q03431) (assay: qHTS for PTHR1 Agonists: Primary Screen). Conditions: HEK293 GP2 PTHR1 cells, GloSensor cAMP luminescence, 1 h; activation: at 115 µM (top of the series) unless noted; series mostly up to 115 µM.
Procedure, shortened: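 HEK-293-derived GP2 cells expressing PTHR1 and a GloSensor cAMP reporter, 3,000/well, plated overnight, given luciferin plus IBMX (each 0.5 mM as added) for 1 h at 37 °C, then compound for 1 h at 37 °C. Luminescence was read after 15 min at room temperature.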
Also: nearly all actives have a fitted effect of over 55% in size.
Potency is read from the fitted curve at half-maximal effect.

Compound	Potency	activation	outcome
Cc1ccc(C)c(Cn2cnc3c(nnn3-c3ccc(F)cc3)c2=O)c1	inconclusive: 35.5 µM [activator, single point]	–	–
COc1cc(NS(=O)(=O)c2ccc3c(c2)CCN3S(C)(=O)=O)cc(OC)c1	–	inactive: -49.4%	–
Cc1ccc(N(C(=O)c2snc(C(N)=O)c2N)C(C(=O)NC2CCCC2)c2ccco2)cc1 (centres undefined)	–	inconclusive: -8.79% [activator]	–
CCOc1ccc(CCN2C(=O)C(=O)N([C@@H](Cc3ccccc3)CN3CCC[C@H]3CN3C(=O)C(=O)NC[C@@H]3CC(C)C)C[C@@H]2Cc2ccc(O)cc2)cc1	inconclusive: 141 µM [activator, single point]	–	–
Cc1c(NC(=O)c2cccnc2)c(=O)n(-c2ccccc2)n1C	inconclusive: 112 µM [activator, single point]	–	–
C/C(=C\c1ccccc1)C(=O)n1nnc2ccccc21	inconclusive: 14.1 µM [activator, partial curve, poor fit]	–	–
O=C(Cc1cccs1)Nc1nnc(COc2ccccc2)s1	inconclusive: 50.1 µM [activator, single point]	–	–
O=[N+]([O-])c1ccc(N/N=C\c2cccn2-c2ccccc2)nc1	–	inconclusive: -93.9% [activator] [at 57.5 µM]	–
COc1ccc(OC)c(/C=N\NC(=O)c2ccc(COc3ccc(C)cc3[N+](=O)[O-])o2)c1	–	inconclusive: -46.5% [activator]	–
CCOc1ccc(N(C(=O)Cn2nnc3ccccc32)C(C(=O)NCc2ccccc2)c2ccc(OC)cc2)cc1 (centres undefined)	–	inconclusive: 40.5% [activator]	–
CN(C)c1ccc(C=NCC2(O)CCOC(C)(C)C2)cc1 (centres undefined)	inconclusive: 39.8 µM [activator, single point]	–	–
Cn1c(C(=O)NCc2cccnc2)cc2sc(Cl)cc21	inconclusive: 35.5 µM [activator, single point]	–	–
COc1ccccc1CNC(=S)NC1CCCCC1	–	inactive: -46.5%	–
CC(CCc1ccccc1)NC(=O)CCC(=O)N1CCC(C(N)=O)CC1 (centres undefined)	inconclusive: 141 µM [activator, single point]	–	–
Cc1ccc(S(=O)(=O)N2CCN(C(=O)COC(=O)c3ccccc3Cl)CC2)c(C)c1	–	inactive: -32.8%	–
COCCNC(=O)c1ccc(CS(=O)(=O)c2cccc(C(F)(F)F)c2)o1	–	inconclusive: 34.5% [activator]	–
CCCCN1C=C(C(=O)c2ccccc2)C(=O)CC1	inconclusive: 6.31 µM [activator, full curve, poor fit]	–	–
S=C(NNc1cccc(Cl)c1)NC1CCCCC1	–	inactive: -3.46%	–
CCCNC(=O)c1cccc(Cn2nc(C)c(Br)c2C)c1	–	inactive: -26.8%	–
COc1ccc(-c2csc(Nc3ccc(C)cn3)n2)cc1	–	inactive: -50%	–
O=C(NCc1ccccn1)c1cn(-c2ccccc2)nc1-c1ccc(Cl)cc1	–	–	inactive
CCS(=O)(=O)c1ccc2c(c1)N(S(=O)(=O)c1cccs1)CC(C(=O)O)O2 (centres undefined)	inconclusive: 8.91 µM [activator, partial curve, poor fit]	–	–
COCCn1nnnc1SCC(=O)N1CCCCC1	inconclusive: 5.62 µM [activator, partial curve, poor fit]	–	–

A stretch of the results above:
Compound	Potency	activation	outcome
S=C(NNc1cccc(Cl)c1)NC1CCCCC1	–	inactive: -3.46%	–
CCCNC(=O)c1cccc(Cn2nc(C)c(Br)c2C)c1	–	inactive: -26.8%	–
COc1ccc(-c2csc(Nc3ccc(C)cn3)n2)cc1	–	inactive: -50%	–

Next compounds follow.

Compound	Potency	activation	outcome
c1cnc(NC2C3CC4CC(C3)CC2C4)nc1 (centres undefined)	inconclusive: 31.6 µM [activator, partial curve, poor fit]	–	–
COc1ccc([N+](=O)[O-])cc1C(=O)C(=O)c1ccccc1	–	inactive: -30.1%	–
CCC(=O)NC(c1ccco1)c1cc(Cl)c2cccnc2c1O (centres undefined)	–	–	inactive
Cc1nnc(SCC(=O)NC2CCS(=O)(=O)C2)n1-c1ccccc1 (centres undefined)	inconclusive: 126 µM [activator, single point]	–	–
Nc1nnn(CC(=O)N/N=C/c2cn[nH]c2-c2ccccc2)n1	inconclusive: 31.6 µM [activator, partial curve, poor fit]	–	–
Cc1nnc(SCc2nc(N)nc(Nc3ccccc3)n2)s1	–	–	inactive [at 57.5 µM]
CCc1nn(CC(=O)NCCCN(CC(C)C)CC(C)C)c(=O)c2cc3sc(C)cc3n12	–	inconclusive: 36% [activator]	–
Cn1nnc(NC(=O)C(c2ccccc2)c2ccccc2)n1	–	inconclusive: 30.1% [activator] [at 57.5 µM]	–
O=C(O)c1ccc(S(=O)(=O)N(Cc2ccc(F)cc2)C2CCCCC2)cc1	inconclusive: 126 µM [activator, single point]	–	–
O=C(CCN1C(=O)C2C3CC(C(Br)C3Br)C2C1=O)OCC(=O)c1cccc([N+](=O)[O-])c1 (centres undefined)	–	–	inactive
CCc1ccc(/C=C2\SC(N3CCCC3)=NC2=O)cc1	–	inactive: -13%	–
CN(Cc1ccccn1)C(=O)CC1C(=O)NCCN1Cc1cccc(Oc2ccccc2)c1 (centres undefined)	–	inconclusive: 49.5% [activator]	–
CCOc1c2ccc(C(=O)NCc3ccc(C)cc3)cc2nn1CCOC	–	inconclusive: 41.9% [activator]	–
COc1ccccc1OCCC(=O)Nc1cccc(S(=O)(=O)N2CCCCC2)c1	–	inconclusive: -44.9% [activator]	–
COC(=O)C1=C(C)NC(=O)CC1c1ccc(C(=O)OC)cc1 (centres undefined)	inconclusive: 6.31 µM [activator, partial curve]	–	–
COc1ccc(CCNC(=O)CCc2c(C)nc3c(c(C)nn3-c3ccc(C)cc3)c2C)c(OC)c1	inconclusive: 6.31 µM [activator, full curve, poor fit]	–	–
CCOC(=O)c1cnc(-n2nc(C)cc2C)[nH]c1=O	inconclusive: 158 µM [activator, single point]	–	–
Cc1nc2ccc(S(=O)(=O)CCC(=O)Nc3ccc(F)cc3C)cc2s1	–	inactive: -2.07%	–
COc1cc(C2C(C#N)=C(N)OC3=C2C(=O)CC(C)(C)C3)cc([N+](=O)[O-])c1O (centres undefined)	inconclusive: 0.767 µM [activator, full curve, poor fit]	–	–
Cc1noc(C)c1C(=O)OCC(=O)Nc1cccc(S(=O)(=O)N(C)C)c1	–	–	inactive
O=C(CSCc1ccc([N+](=O)[O-])cc1)Nc1cccc(C(=O)Nc2ccccc2C(=O)O)c1	inconclusive: 39.8 µM [activator, single point]	–	–
CC[C@H](C)[C@H](NC(N)=O)C(=O)Nc1ccc(OC)c(Cl)c1	inconclusive: 14.1 µM [activator, partial curve, poor fit]	–	–
Cc1c(-c2ccnc3cc(C(=O)O)nn23)cnn1C	–	inactive: -17.8%	–

Single records, from the list above. Values in the order: Potency | activation | outcome
O=C(CCN1C(=O)C2C3CC(C(Br)C3Br)C2C1=O)OCC(=O)c1cccc([N+](=O)[O-])c1 (centres undefined) is listed with – | – | inactive
Cc1ccc(S(=O)(=O)N2CCN(C(=O)COC(=O)c3ccccc3Cl)CC2)c(C)c1 is listed with – | inactive: -32.8% | –

More compounds follow.

Compound	Potency	activation	outcome
CCOC(=O)C(=O)N(C)c1c(CC)nc2c(OCCC3CCCCC3)cccn12	inconclusive: 12.6 µM [activator, partial curve, poor fit]	–	–
COc1ccccc1CNC(=O)CCn1c(=O)sc2ccccc21	inconclusive: 39.8 µM [activator, single point]	–	–
O=C1C=C(c2ccc(C(=O)O)cc2)C[C@@H](c2ccc3c(c2)OCO3)C1	inconclusive: 126 µM [activator, single point]	–	–
Cc1cccc(OC(=O)c2nc(SCc3ccccc3F)ncc2Cl)c1	inconclusive: 158 µM [activator, single point]	–	–
FC(F)(F)C(Oc1nc(Nc2ccc(Cl)cc2)nc(N2CCOCC2)n1)C(F)(F)F	–	inconclusive: 30.1% [activator] [at 57.5 µM]	–
Cc1cc([N+](=O)[O-])cc2c1NC(=O)C2(O)N1CCCCCC1 (centres undefined)	–	–	inactive
Cc1c(CCC(=O)NCC(=O)O)c(=O)oc2cc3occ(-c4ccccc4)c3cc12	–	inconclusive: 43.7% [activator]	–
COc1ccc(NC(=O)COc2cccc3c2CCNC3=O)cc1	inconclusive: 4.47 µM [activator, partial curve, poor fit]	–	–
COC(=O)c1nnn(-c2ccc(Cl)cc2)c1C(=O)OC	inconclusive: 50.1 µM [activator, partial curve, poor fit]	–	–
COc1cccc(OC)c1OCC(C)CNCC1CCCO1 (centres undefined)	inconclusive: 35.5 µM [activator, single point]	–	–
CC(C)CC(=O)Nc1cc([N+](=O)[O-])ccc1Cl	–	inconclusive: 109% [activator] [at 57.5 µM]	–
Cc1cnn(CCC(=O)NNC(=S)Nc2cccc(Cl)c2)c1	inconclusive: 20 µM [activator, partial curve, poor fit]	–	–
C=CCn1c(=O)/c(=C/c2ccc(O)cc2)s/c1=C(/C#N)c1nnc2n1CCCCC2	inconclusive: 0.891 µM [activator, full curve, poor fit]	–	–
O=C(Nc1ccc(Oc2cccnc2)cc1)C1CCN(Cc2cccc(Cl)c2)CC1	inconclusive: 25.1 µM [activator, single point]	–	–
CS(=O)(=O)Cc1ccc(C(=O)N2CCCC2c2cccs2)cc1 (centres undefined)	–	–	inactive
CCS(=O)(=O)N1CCc2cc(C(=O)Nc3cccc(NC(C)=O)c3)ccc21	–	inconclusive: -66.9% [activator]	–
CCN(C(=O)COc1ccccc1)c1nnc(-c2cccnc2)s1	–	inconclusive: -6.24% [activator] [at 57.5 µM]	–
COc1ccc(CNC(=O)Cn2c(=O)n3nc(-c4cccc(F)c4)nc3c3ccccc32)cc1OC	–	–	inactive
COc1cc([C@H]2OC[C@H]3[C@@H]2CO[C@H]3c2ccc(O)c(OC)c2)ccc1O	–	inactive: -17.4%	–
CCc1cc(=O)oc2c(C)c3c(cc12)CN(CCc1ccccc1)CO3	–	–	inactive
CC(=O)N1CCc2cc(S(=O)(=O)NCCC(=O)Nc3cccc(C)c3)ccc21	inconclusive: 5.62 µM [activator, partial curve, poor fit]	–	–
CCc1nn(CC(=O)NCCN(CC(C)C)CC(C)C)c(=O)c2cc3sc(C)cc3n12	inconclusive: 56.2 µM [activator, partial curve, poor fit]	–	–
ON=C1c2ccccc2-c2ccc(Br)cc21	–	–	inactive
